For one molecule, binding results are on record in patent US20250188150A1, “PEPTIDES FOR THE TREATMENT OF FIBROSIS” (Technion Research & Development Foundation Limited, priority 2022, published 2025).

Sequences of proteins named here, by UniProt entry; tags and fusion partners are left off. A change or cut given only in a name is not applied to a line headed by its entry.
UniProt P02751: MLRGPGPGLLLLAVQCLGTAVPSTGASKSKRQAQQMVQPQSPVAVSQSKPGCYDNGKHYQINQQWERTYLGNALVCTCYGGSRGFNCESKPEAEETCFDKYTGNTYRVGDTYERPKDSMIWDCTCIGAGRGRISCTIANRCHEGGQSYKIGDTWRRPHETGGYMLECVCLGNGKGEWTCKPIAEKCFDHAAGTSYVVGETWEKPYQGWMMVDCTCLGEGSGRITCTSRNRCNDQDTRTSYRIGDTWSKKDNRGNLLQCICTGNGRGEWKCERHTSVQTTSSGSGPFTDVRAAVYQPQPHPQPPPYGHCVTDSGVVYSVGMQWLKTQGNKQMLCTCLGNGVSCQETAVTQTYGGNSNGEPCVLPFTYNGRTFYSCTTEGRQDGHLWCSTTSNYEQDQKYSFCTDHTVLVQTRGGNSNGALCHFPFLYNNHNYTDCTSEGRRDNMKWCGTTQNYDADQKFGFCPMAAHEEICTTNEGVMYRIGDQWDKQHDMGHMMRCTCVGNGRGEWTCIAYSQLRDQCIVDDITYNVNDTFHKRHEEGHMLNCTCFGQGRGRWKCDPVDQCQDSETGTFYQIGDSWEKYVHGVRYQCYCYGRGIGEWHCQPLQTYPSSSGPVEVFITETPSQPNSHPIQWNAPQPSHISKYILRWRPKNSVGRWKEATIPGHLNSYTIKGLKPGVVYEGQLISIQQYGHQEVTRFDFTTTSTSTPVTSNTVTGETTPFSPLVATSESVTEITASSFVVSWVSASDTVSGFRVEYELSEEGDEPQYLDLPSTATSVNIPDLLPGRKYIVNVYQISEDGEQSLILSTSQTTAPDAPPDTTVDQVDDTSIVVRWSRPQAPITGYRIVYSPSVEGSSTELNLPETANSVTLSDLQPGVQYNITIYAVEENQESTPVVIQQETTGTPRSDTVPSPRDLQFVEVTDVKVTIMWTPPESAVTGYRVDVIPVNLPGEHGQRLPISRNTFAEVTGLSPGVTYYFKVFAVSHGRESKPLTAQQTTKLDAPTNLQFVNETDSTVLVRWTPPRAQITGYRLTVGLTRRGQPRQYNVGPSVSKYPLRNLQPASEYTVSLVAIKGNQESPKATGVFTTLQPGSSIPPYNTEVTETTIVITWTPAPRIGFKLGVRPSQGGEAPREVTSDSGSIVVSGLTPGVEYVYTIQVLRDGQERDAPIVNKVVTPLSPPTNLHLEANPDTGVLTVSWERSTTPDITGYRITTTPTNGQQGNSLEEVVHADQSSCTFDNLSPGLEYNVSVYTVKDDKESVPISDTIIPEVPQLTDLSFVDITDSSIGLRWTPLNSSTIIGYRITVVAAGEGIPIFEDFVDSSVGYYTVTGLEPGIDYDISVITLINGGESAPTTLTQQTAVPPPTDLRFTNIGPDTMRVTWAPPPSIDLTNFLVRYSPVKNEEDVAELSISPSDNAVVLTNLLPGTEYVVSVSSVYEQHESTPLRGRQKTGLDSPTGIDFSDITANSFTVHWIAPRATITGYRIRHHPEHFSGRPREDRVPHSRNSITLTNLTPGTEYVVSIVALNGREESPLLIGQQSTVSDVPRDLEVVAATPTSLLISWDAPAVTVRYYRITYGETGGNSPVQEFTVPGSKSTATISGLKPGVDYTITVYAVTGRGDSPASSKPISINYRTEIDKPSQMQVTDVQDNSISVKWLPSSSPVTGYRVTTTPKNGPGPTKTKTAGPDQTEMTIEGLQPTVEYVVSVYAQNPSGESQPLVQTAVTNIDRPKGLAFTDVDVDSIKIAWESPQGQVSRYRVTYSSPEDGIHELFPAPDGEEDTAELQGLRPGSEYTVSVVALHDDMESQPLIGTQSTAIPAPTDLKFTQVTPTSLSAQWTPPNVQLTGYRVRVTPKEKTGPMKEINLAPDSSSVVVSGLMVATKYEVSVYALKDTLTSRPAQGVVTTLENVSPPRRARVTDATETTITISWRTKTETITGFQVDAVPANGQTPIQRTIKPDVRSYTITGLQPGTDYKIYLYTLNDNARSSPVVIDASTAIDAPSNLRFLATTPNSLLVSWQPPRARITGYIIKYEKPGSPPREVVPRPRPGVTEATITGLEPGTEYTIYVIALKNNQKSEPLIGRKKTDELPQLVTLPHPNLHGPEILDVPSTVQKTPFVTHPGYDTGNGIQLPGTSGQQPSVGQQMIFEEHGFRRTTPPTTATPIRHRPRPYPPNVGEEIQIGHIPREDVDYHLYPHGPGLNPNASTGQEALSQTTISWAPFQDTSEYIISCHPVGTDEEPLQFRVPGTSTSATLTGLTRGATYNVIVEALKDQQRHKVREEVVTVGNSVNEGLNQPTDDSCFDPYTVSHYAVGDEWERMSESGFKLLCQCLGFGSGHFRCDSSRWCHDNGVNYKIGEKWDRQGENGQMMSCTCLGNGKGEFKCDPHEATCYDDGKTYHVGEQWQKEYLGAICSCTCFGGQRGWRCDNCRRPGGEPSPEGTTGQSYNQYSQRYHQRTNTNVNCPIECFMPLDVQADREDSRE

Results are given in words; binding and its absence hold for the method and conditions named. Some entries that bind do so weakly or less than the wild type.

The assay has as its target human plasma FN (hFN, Sigma-Aldrich, FC010-10MG) (human) (UniProt P02751). As to the kind of experiment: quantification of LOXL3 on FN-coated glass after enzyme treatment and washes.

B1: human recombinant LOXL3 (RhLOXL3, R&D systems, 6069-AO) (enzyme, UniProt P58215 26-753, looked up)
chain: SPSPSTGPEKKAGSQGLRFRLAGFPRKPYEGRVEIQRAGEWGTICDDDFTLQAAHILCRELGFTEATGWTHSAKYGPGTGRIWLDNLSCSGTEQSVTECASRGWGNSDCTHDEDAGVICKDQRLPGFSDSNVIEVEHHLQVEEVRIRPAVGWGRRPLPVTEGLVEVRLPDGWSQVCDKGWSAHNSHVVCGMLGFPSEKRVNAAFYRLLAQRQQHSFGLHGVACVGTEAHLSLCSLEFYRANDTARCPGGGPAVVSCVPGPVYAASSGQKKQQQSKPQGEARVRLKGGAHPGEGRVEVLKASTWGTVCDRKWDLHAASVVCRELGFGSAREALSGARMGQGMGAIHLSEVRCSGQELSLWKCPHKNITAEDCSHSQDAGVRCNLPYTGAETRIRLSGGRSQHEGRVEVQIGGPGPLRWGLICGDDWGTLEAMVACRQLGLGYANHGLQETWYWDSGNITEVVMSGVRCTGTELSLDQCAHHGTHITCKRTGTRFTAGVICSETASDLLLHSALVQETAYIEDRPLHMLYCAAEENCLASSARSANWPYGHRRLLRFSSQIHNLGRADFRPKAGRHSWVWHECHGHYHSMDIFTHYDILTPNGTKVAEGHKASFCLEDTECQEDVSKRYECANFGEQGITVGCWDLYRHDIDCQWIDITDVKPGNYILQVVINPNFEVAESDFTNNAMKCNCKYDGHRIWVHNCHIGDAFSEEANRRFERYPGQTSNQII
As to B1, the binding result is listed as “binds”.
